In PubChem BioAssay AID540276 (National Center for Advancing Translational Sciences (NCATS), 2011):
The whole screen tested about 300,000 compounds, of which about 5,400 (1.8%) were called active. This list was built around the results that the source calls inconclusive (neither active nor inactive); the mix of calls is not that of the screen. The call rests on the fitted dose curve; tested in HEK293 cells. Potencies of inconclusive entries are doubtful fits and often do not repeat.

experiment: qHTS for inhibitors of binding or entry into cells for Marburg Virus; conditions: Marburg virus pseudotyped entry inhibition, cell reporter; activity change, negative = inhibition: at 37.8 µM (top of the series) unless noted
On the % scale 0 is the no-effect control and ±100 the full control effect; potency means the concentration at half of the fitted maximal effect.

SMILES	activity change, negative = inhibition	Potency
CSc1ncc(C(=O)Nc2cccc(Cl)c2C)c(C)n1	inactive: -6.3% [at 46.1 µM]	
Cn1ccsc1=NC(=O)c1ccc(S(C)(=O)=O)c([N+](=O)[O-])c1		inconclusive: 25.1 µM [inhibitor, single point]
CCCCn1c(O)c(C=Nc2c(C)n(C)n(-c3ccccc3)c2=O)c(=O)[nH]c1=O		inconclusive: 10 µM [activator, single point]
CCCOc1cccc(C(=O)Nc2cc(-c3ccccc3)no2)c1		inconclusive: 2.82 µM [activator, partial curve, poor fit]
Cc1cc(=O)oc2ccc(OC(C)C(=O)O)cc12 (stereo unspecified)		inconclusive: 35.5 µM [inhibitor, single point]
CCOc1cc(/C=C\[N+](=O)[O-])ccc1OCC(=O)Nc1ccccc1C	inactive: 0.303%	
CCc1cccc(NC(=O)C(Cc2ccccc2)n2cccc2)c1 (stereo unspecified)		inconclusive: 35.5 µM [inhibitor, single point]
Cc1ccc(S(=O)(=O)N2CCC(C(=O)N3CCC[C@H]3C(=O)NCc3ccco3)CC2)cc1	inactive: -10.1%	
CN1C(=O)C(N=Nc2ccc([N+](=O)[O-])cc2)SC1=S (stereo unspecified)		inconclusive: 10 µM [inhibitor, partial curve, poor fit]
COc1ccc2c(c1)NC(C)(C)C=C2C	inactive: -14.1% [at 46.1 µM]	
Cc1ccc(CNC(=O)c2ccc3nc(SCc4ccc(F)cc4)[nH]c3c2)cc1	inactive: -5.76% [at 46.1 µM]	
Cc1cccc(NC(=O)CN(C)C(C)C(=O)Nc2ccc(S(=O)(=O)N3CCCC3)cc2)c1C (stereo unspecified)		inconclusive: 35.5 µM [inhibitor, single point]
COc1cccc(-c2nc(SCC(=O)NC3CCCC3)c(-c3ccc(C)cc3)[nH]2)c1		inconclusive: 11.2 µM [inhibitor, single point]
Cc1nc2ccc(NS(=O)(=O)c3ccc(C)c(C)c3)cc2s1		inconclusive: 7.94 µM [inhibitor, partial curve, poor fit]
CCOc1cccc2cc(S(=O)(=O)c3ccccc3F)c(=O)oc12	inactive: 1.87% [at 46.1 µM]	
Cc1ccc2c(c1)c1c(n2CC(O)CN2CCCCCC2)CCCC1 (stereo unspecified)		active: 6.31 µM
CCc1nnc(NC(=O)c2ccc(S(=O)(=O)N3CCCC(C)C3)cc2)s1 (stereo unspecified)	inactive: 8.35% [at 46.1 µM]	
Cc1ccc(CO)cc1Nc1ncnc2onc(-c3ccc(F)cc3)c12	inactive: -3.99% [at 46.1 µM]	
CC(C)C(NC(=O)c1ccccc1F)C(=O)Nc1ccc2c(c1)OCO2 (stereo unspecified)		inconclusive: 1.46 µM [inhibitor, partial curve, poor fit]
Cc1ccc(C2=NC3(CCCCCC3)NC2=S)cc1	inactive: 0.561%	
Cc1cc(-c2csc(NCc3ccccc3)n2)c(C)n1C	inactive: 0.512% [at 46.1 µM]	
CN(C)c1cccc(C(=O)NCc2ccc3c(c2)OCO3)c1	inactive: 12.8% [at 46.1 µM]	
COc1ccc(NC(=O)N2CCNC(=O)C2CC(=O)Nc2ccc(F)cc2)cc1 (stereo unspecified)	inactive: 9.19%	
COc1ccc(-c2nnn(CC(=O)N(CCCN3CCOCC3)C(C(=O)NC3CCCC3)c3ccc(C)o3)n2)cc1 (stereo unspecified)		inconclusive: 35.5 µM [inhibitor, single point]

Single entries from the results shown.
activity change, negative = inhibition with Cc1ccc(C2=NC3(CCCCCC3)NC2=S)cc1 reads inactive: 0.561%
Potency with CCCCn1c(O)c(C=Nc2c(C)n(C)n(-c3ccccc3)c2=O)c(=O)[nH]c1=O reads inconclusive: 10 µM [activator, single point]

Carrying on:

SMILES	activity change, negative = inhibition	Potency
CC(C)CN(CC(C)C)c1ccc(/C=N/n2cnnc2)cc1[N+](=O)[O-]		inconclusive: 35.5 µM [inhibitor, single point]
CCCCC(C(=O)NC1CCCC1)N(Cc1ccco1)C(=O)Cn1nnc(-c2ccc(F)cc2)n1 (stereo unspecified)		inconclusive: 35.5 µM [inhibitor, single point]
CC(=O)Nc1ccccc1-c1nc2ccccc2n(CC(=O)Nc2cccc(C(F)(F)F)c2)c1=O	inactive: -14.1% [at 46.1 µM]	
Cc1ccc2nc3c(c(N)c2c1)CCN3C		inconclusive: 10 µM [inhibitor, partial curve, poor fit]
O=C(CNC(=S)N(Cc1ccccc1)Cc1ccccc1F)NCc1ccccc1		inconclusive: 31.6 µM [inhibitor, single point]
CCn1c(CC(=O)Nc2ccccc2Cl)nnc1SCC(=O)NC1CCCC1	inactive: -7.47% [at 46.1 µM]	
CCOc1ccc(NS(=O)(=O)c2ccc3c4c(cccc24)C(=O)N3)cc1		inconclusive: 11.2 µM [inhibitor, partial curve, poor fit]
Cc1ccc(CN(Cc2ccco2)C(=O)COc2ccc(C)c(C)c2)cc1		inconclusive: 10 µM [inhibitor, partial curve, poor fit]
COc1cccc(NC(=O)CN2C(=O)NC(C)(C3CC3)C2=O)c1 (stereo unspecified)		inconclusive: 35.5 µM [activator, single point]
CCOc1ccccc1NC(=O)NC1(C(=O)NCC2CCCO2)CCCCC1 (stereo unspecified)		inconclusive: 31.6 µM [inhibitor, single point]
Cc1cccn2c(=O)c3cc(C(=O)NCc4ccco4)c(=N)n(CCOCCO)c3nc12		inconclusive: 11.2 µM [inhibitor, single point]
CCn1c(SCC(=O)Nc2ccc3c(c2)OCCO3)nnc1-c1cccnc1	inconclusive: 0.227% [activator] [at 46.1 µM]	
COc1ccc(NC(=O)c2sc3cc(C(F)(F)F)cnc3c2-c2cccs2)cc1		inconclusive: 0.0891 µM [activator, full curve, poor fit]
Cc1cccc(NC(=O)CCS(=O)(=O)c2cc(Br)cc3c2N(C(=O)C2CC2)CC3)c1	inactive: 18.3% [at 46.1 µM]	
CCn1c2ccccc2c2nnc(SCCCn3c(=O)[nH]c4ccccc43)nc21		inconclusive: 23.1 µM [inhibitor, single point]
O=C(O)c1ccc(-c2nc(-c3ccccc3)c(-c3ccccc3)[nH]2)cc1	inactive: 13.6%	
O=C(NC(=S)N1CCN(c2ccc(C(F)(F)F)cc2[N+](=O)[O-])CC1)c1cccs1	inactive: -29.8%	
Cc1cc(NC(=O)COc2nnc(-c3ccccc3)c3ccccc23)no1		inconclusive: 35.5 µM [inhibitor, partial curve, poor fit]
Cc1cc(C)cc(NC(=O)C(OC(=O)c2ccc([N+](=O)[O-])o2)c2ccccc2)c1 (stereo unspecified)	inactive: -1.33%	
COc1ccc(OCc2nnc(SCc3ccc(C(=O)O)cc3)o2)cc1	inactive: -12.6% [at 14.2 µM]	
CCOC(=O)C1=C(N)n2c(s/c(=C/c3ccco3)c2=O)=C(C(=O)OC(C)C)[C@@H]1c1ccco1		inconclusive: 0.447 µM [activator, partial curve, poor fit]
O=S(=O)(Nc1cccc(S(=O)(=O)N2CCCCC2)c1)c1ccccc1F		inconclusive: 35.5 µM [inhibitor, single point]
CN(C)/C=N/n1cnc2ccccc2c1=O		inconclusive: 22.4 µM [activator, single point]
CC(=O)Nc1cccc(N2C(=O)CC(N3CCC(C(=O)N4CCCCC4)CC3)C2=O)c1 (stereo unspecified)	inactive: 5.23%	

SMILES	activity change, negative = inhibition	Potency
O=C1CCCN2N=C(SCC(=O)N3N=C(c4ccc(Br)cc4)CC3c3ccc(F)cc3)SC2=N1 (stereo unspecified)		inconclusive: 35.5 µM [inhibitor, single point]
Cc1ccsc1CNC(=O)c1c(-c2ccccc2)noc1C		inconclusive: 6.31 µM [inhibitor, single point]
O=C(CCN1CCOCC1)NNC(=O)Nc1cccc(C(F)(F)F)c1		inconclusive: 1 µM [inhibitor, full curve, poor fit]
CN(C)CCCN1c2ccc3ccccc3c2Sc2cccc(Cl)c21		inconclusive: 35.5 µM [inhibitor, single point]
CC1C(=O)Nc2ccccc2N1C(=O)c1ccccc1 (stereo unspecified)	inactive: -3.33% [at 46.1 µM]	
O=C(NC1CCCCC1)C(c1cccs1)N(C(=O)c1ccccn1)c1ccccc1 (stereo unspecified)	inactive: -13.6%	
Cc1cc(OC(=O)c2cccs2)c2c3c(c(=O)oc2c1)CCCC3		inconclusive: 29.1 µM [inhibitor, single point]
O=C(NCCc1cnn(-c2ccccc2)c1)c1cc(COc2c(F)cccc2F)on1		inconclusive: 2.82 µM [activator, single point]
O=S(=O)(Nc1nc2ccccc2nc1NCC1CCCO1)c1cccs1 (stereo unspecified)	inactive: 2.63%	
COc1cc([N+](=O)[O-])ccc1NC(=O)CSc1nc2ccccc2n1-c1ccccc1	inactive: 3.53%	
CC(C)(C)c1ccc(C(=O)Nc2onc3c2CCCC3)cc1		inconclusive: 25.1 µM [inhibitor, single point]
CCN(c1cccc(C)c1)S(=O)(=O)c1cccc(C(=O)O)c1		inactive
C/C(=N/NC(=O)c1cc(C)[nH]n1)c1ccco1		inconclusive: 6.31 µM [activator, partial curve, poor fit]
CCOC(=O)C1CCCN(C2CC(=O)N(c3ccc(C)cc3)C2=O)C1 (stereo unspecified)	inactive: -22.4%	
O=C(NC(=S)Nc1ccccc1O)c1cccnc1		inconclusive: 35.5 µM [activator, single point]
COc1ccc(-c2nc3ccccc3s2)cc1NC(=O)c1ccc(F)cc1	inactive: -3.73% [at 46.1 µM]	
Fc1ccc(C(OCCN2CCCC2)c2ccc(F)cc2)cc1		inconclusive: 29.1 µM [inhibitor, single point]
Cc1c(C(=O)C(=O)N2CCCc3ccccc32)c2ccccc2n1C		inconclusive: 8.91 µM [inhibitor, partial curve, poor fit]
COc1ccc(NCc2nnc(SCC(=O)Nc3nc(-c4ccccc4)cs3)n2-c2ccccc2)cc1		inconclusive: 7.08 µM [inhibitor, partial curve, poor fit]
C=C(C)COc1ccc2c(CC)cc(=O)oc2c1C		inconclusive: 7.31 µM [activator, partial curve, poor fit]
Cc1cc(C)c(CN2CCC(CO)(CCOc3ccccc3)CC2)cc1C		active: 11.2 µM
Cc1ccc(S(=O)(=O)c2cc3c(=O)n4cccc(C)c4nc3n(CCc3ccccc3)c2=N)cc1C	inactive: 1.23%	
Cc1ccccc1/C=N\NC(=O)c1csnn1		inconclusive: 2.24 µM [activator, partial curve]
